# Experimental data reported in PubChem BioAssay AID652020 (National Center for Advancing Translational Sciences (NCATS), 2013).
# The chains behind the UniProt entries cited, without tags or fusion partners.
# UniProt P00390, whole entry, looked up: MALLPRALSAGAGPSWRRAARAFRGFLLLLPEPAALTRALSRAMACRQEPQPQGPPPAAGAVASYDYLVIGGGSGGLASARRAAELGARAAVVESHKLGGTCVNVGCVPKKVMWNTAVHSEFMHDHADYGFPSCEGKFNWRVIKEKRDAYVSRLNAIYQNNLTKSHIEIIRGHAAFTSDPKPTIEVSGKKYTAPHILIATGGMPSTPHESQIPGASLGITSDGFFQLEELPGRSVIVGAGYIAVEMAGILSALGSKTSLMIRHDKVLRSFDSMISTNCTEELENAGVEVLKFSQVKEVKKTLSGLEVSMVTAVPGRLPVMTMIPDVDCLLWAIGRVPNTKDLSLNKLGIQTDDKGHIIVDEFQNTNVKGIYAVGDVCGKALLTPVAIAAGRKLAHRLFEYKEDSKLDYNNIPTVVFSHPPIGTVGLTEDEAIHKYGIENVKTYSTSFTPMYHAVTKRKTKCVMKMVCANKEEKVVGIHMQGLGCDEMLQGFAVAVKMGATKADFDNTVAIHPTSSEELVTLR
# The shares of active, inactive and inconclusive entries below differ from those in the screen. A call without a number means that no potency is given here. Where the call is inconclusive, the potency comes from a doubtful curve fit. The source made the active and inactive calls. The call rests on the fitted dose curve; in most records, active means well fitted curve in the direction sought with a large enough effect; inconclusive means small, poorly fitted or top-dose-only effect, or another doubt; inactive means no such curve, though single readings can be large or run the other way.
# Target: Glutathione reductase, mitochondrial (Homo sapiens) (UniProt P00390)
# Experiment: qHTS Assay for Inhibitors of Mammalian Selenoprotein Thioredoxin Reductase 1 (TrxR1): Counterassay in Glutathione Reductase (GR)
# Conditions: purified GR, DTNB reduction absorbance 405 nm kinetic; series mostly up to 57.1 µM
# Text: The selenoprotein thioredoxin reductase (TrxR; EC 1.8.1.9) is a FAD containing homodimeric pyridine nucleotide-disulfide oxidoreductase with many cellular roles. Together with NADPH and its prime substrate thioredoxin (Trx), the enzyme forms the core of the Trx system. The mammalian Trx system exerts a wide spectrum of functions including redox regulation, antioxidant defense, regulation of transcription factors as well as support of cell growth and replication. Many of these functions involve the reduction of Trx, which may subsequently reduce a number of different substrates including ribonucleotide reductase, peroxiredoxins or NFkB. Mammalian TrxR itself also has a broad substrate specificity, reducing both protein and non-protein substrates, including low molecular weight compounds such as dehydroascorbate, lipoic acid, ubiquinone, and juglone. In addition, several drugs in clinical use for anticancer treatment are indeed known to target TrxR1. This assay is counterassay using a yeast glutathione reductase (GR) assay. The desired outcome is inactivity in this assay. NIH Molecular Libraries Probe Production Network [MLPCN] NIH Chemical Genomics Center [NCGC] MLPCN Grant: MH090846 Assay Provider: Elias Arner, Karolinska Institute
# Three microliters of reagents (100 microM NADPH and 60 nM hGR or 100 microM NADPH as no-enzyme control) was dispensed into 1,536-well black clear-bottomed plates (Buffer: 0.1 M potassium phosphate, pH 7.4/10 mM EDTA, 0.01 % Tween-20). Compounds (23nl) was transferred via Kalypsys pin tool equipped with 1536-pin array. The plates were incubated for 15 min at room temperature, and 1microl aliquot of 500 microM NADPH was added, immediately followed by a 1 microl aliquot of 15 mM DTNB (3 mM final concentration) to start the reaction. The plate was transferred to a ViewLux high-throughput CCD imager (Perkin-Elmer, Wellesley, MA) where kinetic measurements (one read per 5 min for 6 reads, total time 25 min) of the TNB absorbance was acquired using a 405 excitation filter.
row,SMILES,Potency
1,Cc1ccc2[nH]c(=O)c(CN(CCCN3CCOCC3)Cc3nnnn3C3CCCC3)cc2c1,"inconclusive: 33.6 µM [inhibitor, single point]"
2,Cc1cc(S(=O)(=O)c2ccc([N+](=O)[O-])cn2)ccc1Br,inactive
3,Fc1ccc(/C=C2\CCCC3=C2Nc2ncnn2C3c2ccc(F)cc2)cc1 (centres undefined),inactive
4,Cc1ccc(C2C(C(=O)c3cc4ccccc4o3)=C(O)C(=O)N2CCN2CCOCC2)cc1 (centres undefined),"inconclusive: 21.2 µM [inhibitor, single point]"
